The values that follow come from the supplement of paper PMC11732987, “Enantioselective OTUD7B fragment discovery through chemoproteomics screening and high-throughput optimisation” (Communications Chemistry, 2025).

By UniProt entry, the sequences of proteins in these tests, tags left out. Where a name states a change or a piece, a line headed by the entry shows the natural chain unless it says otherwise. Residues count along the entry.
UniProt Q99575: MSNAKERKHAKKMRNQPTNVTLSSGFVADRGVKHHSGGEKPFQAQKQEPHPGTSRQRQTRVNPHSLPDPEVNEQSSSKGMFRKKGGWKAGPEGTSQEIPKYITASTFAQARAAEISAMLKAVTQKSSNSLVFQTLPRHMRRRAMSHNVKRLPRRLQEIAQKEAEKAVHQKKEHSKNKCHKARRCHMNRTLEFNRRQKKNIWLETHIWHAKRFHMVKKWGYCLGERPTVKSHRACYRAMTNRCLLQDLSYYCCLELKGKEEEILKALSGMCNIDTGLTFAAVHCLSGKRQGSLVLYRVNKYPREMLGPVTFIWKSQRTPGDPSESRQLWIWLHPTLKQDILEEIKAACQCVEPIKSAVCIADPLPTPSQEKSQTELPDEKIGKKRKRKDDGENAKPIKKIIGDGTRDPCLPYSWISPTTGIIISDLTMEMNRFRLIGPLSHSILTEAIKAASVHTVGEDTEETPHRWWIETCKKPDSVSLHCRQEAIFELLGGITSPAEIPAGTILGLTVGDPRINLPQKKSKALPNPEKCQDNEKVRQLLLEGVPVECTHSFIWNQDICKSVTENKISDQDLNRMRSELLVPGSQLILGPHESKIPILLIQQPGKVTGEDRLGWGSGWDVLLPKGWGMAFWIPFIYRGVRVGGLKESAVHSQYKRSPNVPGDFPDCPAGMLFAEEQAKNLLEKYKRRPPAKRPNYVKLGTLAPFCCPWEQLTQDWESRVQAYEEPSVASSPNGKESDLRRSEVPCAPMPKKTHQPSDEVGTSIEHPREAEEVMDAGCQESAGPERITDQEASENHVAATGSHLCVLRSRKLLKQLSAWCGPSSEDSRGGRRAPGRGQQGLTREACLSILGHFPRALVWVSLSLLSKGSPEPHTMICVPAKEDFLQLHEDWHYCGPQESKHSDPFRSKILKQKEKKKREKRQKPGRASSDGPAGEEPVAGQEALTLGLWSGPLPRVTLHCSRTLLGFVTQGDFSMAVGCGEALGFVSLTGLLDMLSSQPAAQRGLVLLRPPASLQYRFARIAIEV
UniProt P78527, whole entry, looked up: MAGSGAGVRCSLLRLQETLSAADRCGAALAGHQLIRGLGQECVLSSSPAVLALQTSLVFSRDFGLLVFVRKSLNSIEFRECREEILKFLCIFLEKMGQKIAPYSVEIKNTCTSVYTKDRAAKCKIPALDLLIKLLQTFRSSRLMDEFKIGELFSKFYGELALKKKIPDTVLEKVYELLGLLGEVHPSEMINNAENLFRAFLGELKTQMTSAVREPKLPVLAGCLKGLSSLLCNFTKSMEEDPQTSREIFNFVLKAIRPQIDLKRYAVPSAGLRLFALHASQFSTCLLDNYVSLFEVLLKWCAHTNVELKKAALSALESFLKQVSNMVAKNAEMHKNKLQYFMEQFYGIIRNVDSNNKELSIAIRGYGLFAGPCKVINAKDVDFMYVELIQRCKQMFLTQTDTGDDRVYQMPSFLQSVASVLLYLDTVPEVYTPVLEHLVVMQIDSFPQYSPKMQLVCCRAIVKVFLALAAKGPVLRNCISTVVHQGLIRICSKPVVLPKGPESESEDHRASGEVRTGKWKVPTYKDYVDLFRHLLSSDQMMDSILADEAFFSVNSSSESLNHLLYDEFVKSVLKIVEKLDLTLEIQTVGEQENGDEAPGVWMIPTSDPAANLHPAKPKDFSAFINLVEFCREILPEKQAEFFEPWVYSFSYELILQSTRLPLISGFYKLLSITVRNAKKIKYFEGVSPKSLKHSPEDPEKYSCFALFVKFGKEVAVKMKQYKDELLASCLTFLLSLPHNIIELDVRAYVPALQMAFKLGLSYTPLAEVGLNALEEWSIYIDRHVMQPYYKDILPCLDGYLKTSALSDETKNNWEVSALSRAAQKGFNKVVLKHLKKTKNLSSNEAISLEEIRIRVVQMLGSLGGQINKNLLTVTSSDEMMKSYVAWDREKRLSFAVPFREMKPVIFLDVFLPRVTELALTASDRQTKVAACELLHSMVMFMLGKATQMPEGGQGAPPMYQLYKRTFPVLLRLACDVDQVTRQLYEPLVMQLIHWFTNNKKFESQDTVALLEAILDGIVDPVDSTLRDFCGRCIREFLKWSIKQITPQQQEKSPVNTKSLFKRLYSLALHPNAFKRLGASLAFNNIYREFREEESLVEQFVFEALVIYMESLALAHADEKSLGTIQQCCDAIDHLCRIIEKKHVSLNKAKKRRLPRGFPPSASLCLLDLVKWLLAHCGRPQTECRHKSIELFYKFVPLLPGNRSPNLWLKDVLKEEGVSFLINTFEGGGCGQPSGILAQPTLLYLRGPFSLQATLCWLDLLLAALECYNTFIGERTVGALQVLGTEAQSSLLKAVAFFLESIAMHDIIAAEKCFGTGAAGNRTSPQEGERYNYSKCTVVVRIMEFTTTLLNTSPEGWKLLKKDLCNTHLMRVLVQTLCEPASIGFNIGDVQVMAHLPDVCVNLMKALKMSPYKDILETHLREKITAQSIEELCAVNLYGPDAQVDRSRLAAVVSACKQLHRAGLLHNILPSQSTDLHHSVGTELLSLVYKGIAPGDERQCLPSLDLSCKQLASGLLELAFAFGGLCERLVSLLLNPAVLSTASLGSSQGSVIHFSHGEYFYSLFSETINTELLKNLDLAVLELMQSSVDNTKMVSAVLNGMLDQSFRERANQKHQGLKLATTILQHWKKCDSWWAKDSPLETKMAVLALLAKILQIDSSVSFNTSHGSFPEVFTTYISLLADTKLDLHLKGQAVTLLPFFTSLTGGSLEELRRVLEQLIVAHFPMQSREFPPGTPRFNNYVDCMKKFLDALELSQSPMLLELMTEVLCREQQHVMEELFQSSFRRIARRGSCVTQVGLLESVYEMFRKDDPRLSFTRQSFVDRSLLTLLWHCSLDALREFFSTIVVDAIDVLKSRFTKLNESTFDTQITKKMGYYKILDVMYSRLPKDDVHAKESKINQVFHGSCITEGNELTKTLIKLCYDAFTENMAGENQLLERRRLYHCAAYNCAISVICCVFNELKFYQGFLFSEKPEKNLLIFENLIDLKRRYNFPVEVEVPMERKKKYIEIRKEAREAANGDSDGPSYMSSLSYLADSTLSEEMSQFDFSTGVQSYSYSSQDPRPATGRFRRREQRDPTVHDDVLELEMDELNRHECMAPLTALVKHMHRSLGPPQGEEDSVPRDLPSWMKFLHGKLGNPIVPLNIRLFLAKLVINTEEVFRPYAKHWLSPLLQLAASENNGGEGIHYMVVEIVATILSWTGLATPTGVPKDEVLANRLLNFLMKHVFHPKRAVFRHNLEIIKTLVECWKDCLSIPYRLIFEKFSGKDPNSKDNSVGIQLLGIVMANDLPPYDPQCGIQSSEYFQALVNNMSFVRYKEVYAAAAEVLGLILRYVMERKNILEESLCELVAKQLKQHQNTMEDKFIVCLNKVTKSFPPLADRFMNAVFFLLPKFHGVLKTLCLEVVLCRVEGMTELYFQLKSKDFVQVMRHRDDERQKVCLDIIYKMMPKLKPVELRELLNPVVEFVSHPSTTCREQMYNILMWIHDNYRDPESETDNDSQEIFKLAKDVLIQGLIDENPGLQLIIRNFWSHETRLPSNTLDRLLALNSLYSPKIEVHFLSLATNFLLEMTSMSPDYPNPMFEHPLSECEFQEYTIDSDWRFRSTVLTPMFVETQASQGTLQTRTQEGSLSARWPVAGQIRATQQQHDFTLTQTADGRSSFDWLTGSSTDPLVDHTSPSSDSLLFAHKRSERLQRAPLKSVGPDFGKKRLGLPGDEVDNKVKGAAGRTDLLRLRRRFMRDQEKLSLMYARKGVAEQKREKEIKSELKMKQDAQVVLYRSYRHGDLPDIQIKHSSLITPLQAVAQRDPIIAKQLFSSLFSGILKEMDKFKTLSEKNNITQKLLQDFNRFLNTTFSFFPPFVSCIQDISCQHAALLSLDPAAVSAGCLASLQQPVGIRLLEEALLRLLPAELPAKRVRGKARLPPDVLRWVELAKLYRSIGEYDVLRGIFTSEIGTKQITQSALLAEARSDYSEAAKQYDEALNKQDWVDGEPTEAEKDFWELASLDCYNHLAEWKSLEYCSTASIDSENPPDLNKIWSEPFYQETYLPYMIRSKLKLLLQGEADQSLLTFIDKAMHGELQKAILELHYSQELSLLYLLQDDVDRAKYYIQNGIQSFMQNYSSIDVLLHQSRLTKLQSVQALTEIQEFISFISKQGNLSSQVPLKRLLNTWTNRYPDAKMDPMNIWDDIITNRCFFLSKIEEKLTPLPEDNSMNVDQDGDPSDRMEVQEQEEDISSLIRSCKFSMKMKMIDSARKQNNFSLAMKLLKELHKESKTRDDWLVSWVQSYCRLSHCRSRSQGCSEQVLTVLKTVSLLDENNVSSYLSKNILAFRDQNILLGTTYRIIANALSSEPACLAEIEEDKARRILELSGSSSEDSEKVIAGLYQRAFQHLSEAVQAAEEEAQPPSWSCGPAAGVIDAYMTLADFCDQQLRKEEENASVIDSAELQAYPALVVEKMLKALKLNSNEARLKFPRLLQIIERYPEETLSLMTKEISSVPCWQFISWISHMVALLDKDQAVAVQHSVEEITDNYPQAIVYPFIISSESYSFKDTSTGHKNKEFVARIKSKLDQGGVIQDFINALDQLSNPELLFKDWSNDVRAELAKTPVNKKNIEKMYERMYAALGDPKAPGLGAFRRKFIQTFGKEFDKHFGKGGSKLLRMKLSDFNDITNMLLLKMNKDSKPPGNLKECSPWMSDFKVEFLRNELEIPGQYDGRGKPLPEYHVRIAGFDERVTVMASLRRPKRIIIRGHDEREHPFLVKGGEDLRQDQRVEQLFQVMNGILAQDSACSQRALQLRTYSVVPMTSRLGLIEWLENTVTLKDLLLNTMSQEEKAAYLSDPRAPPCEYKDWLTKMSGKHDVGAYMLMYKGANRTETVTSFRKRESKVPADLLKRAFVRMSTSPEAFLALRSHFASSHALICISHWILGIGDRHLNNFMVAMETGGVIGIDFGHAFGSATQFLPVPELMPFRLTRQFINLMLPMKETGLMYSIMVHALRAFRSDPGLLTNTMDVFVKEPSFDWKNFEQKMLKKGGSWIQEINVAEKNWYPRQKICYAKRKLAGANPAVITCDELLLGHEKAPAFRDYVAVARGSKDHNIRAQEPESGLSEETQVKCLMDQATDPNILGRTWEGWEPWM
UniProt P78527, 1423-1445: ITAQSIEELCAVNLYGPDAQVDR
UniProt Q86W92, 427-455: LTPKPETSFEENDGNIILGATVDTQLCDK
UniProt Q8WY54, 494-526: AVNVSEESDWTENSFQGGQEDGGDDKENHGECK
UniProt Q8TAP8: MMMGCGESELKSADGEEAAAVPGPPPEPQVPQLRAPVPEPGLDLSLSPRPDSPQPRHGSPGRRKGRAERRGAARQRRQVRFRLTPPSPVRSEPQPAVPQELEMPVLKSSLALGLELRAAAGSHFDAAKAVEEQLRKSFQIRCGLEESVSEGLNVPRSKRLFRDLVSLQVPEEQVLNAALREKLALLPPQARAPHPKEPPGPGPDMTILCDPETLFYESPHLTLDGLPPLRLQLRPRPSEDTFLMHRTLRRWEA
UniProt Q9BZL4: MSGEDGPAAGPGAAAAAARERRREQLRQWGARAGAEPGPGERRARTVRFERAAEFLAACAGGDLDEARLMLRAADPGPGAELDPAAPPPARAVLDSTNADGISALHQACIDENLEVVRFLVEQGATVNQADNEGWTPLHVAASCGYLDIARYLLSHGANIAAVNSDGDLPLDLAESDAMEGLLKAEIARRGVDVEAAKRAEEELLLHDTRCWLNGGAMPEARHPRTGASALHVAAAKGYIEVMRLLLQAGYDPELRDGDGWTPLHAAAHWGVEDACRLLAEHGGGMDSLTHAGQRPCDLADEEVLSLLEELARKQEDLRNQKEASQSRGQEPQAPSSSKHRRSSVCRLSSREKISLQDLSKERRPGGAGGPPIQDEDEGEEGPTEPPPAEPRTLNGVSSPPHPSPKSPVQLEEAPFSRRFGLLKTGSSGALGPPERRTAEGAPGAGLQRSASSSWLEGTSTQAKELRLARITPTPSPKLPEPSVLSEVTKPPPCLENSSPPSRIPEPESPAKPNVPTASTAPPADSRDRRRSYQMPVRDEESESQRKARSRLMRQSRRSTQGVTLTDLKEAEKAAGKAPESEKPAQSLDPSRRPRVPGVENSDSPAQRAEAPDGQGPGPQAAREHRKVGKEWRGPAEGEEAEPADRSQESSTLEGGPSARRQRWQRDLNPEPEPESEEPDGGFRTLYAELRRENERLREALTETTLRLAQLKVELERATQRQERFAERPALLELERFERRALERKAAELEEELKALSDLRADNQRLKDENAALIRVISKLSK
UniProt O75569: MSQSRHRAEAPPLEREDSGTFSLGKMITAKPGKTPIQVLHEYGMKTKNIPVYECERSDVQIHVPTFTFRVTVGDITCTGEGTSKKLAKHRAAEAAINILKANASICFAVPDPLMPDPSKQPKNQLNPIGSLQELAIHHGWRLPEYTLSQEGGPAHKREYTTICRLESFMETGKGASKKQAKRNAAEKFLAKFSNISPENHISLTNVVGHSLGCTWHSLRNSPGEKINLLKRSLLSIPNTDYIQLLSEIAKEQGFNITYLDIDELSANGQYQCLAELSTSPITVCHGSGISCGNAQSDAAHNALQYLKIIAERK

Some of the results follow. The data scatter; read single values as rough.

Compound in assay [1]: ClCC(=O)N[C@@H]1CCCc2ccccc12
The assay is described as follows: log2 mean competition ratio of IA-DTB cysteine labelling (DMSO/compound) (log2 ratio); higher = stronger cysteine engagement by compound. Particulars: treatment time: 4 h, cell line lysate: HEK293T. The method, then: (§1)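 IA-DTB competitive cysteine chemoproteomics in HEK293T RIPA lysate. Lysates were treated with compound 29 or 30 at 50 or 200 µM for 4 h, then IA-DTB (500 µM, 1 h), trypsin-digested, NeutrAvidin-enriched and analysed by diaPASEF. Competition ratio = intensity DMSO / intensity compound (n=4 treated, n=64 DMSO); binding: mean log2 CR ≥ 1 and p ≤ 0.05 plus QC filters. Target is the cysteine site.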

Compound in assay [2]: ClCC(=O)N[C@H]1CCCc2ccccc12
The assay is described as above. Particulars: treatment time: 4 h, cell line lysate: HEK293T. On the procedure:
as §1

In the case of POP1 C777 (UniProt Q99575), the “log2 mean competition ratio” value was -0.271 in assay [1] (50 µM), 0.241 in assay [1] (200 µM), -0.254 in assay [2] (50 µM) and 0.193 in assay [2] (200 µM).
For the target PRKDC C1919 (UniProt P78527), the “log2 mean competition ratio” value came out at 0.221 in assay [1] (50 µM), 0.49 in assay [1] (200 µM), 0.331 in assay [2] (50 µM) and 0.344 in assay [2] (200 µM).
For PRMT5 C22 (UniProt O14744), in that order: -0.0828, -0.204, -0.516 and -0.106.
On the same counts, the results for PPP2R1B C186 are -0.353, -0.278, -0.0639 and 0.0929.
For PRPF6 C913 (UniProt O94906), in that order: -0.0565, 0.145, 0.442 and 0.0193.
Consider PRKD2 C74, for which the “log2 mean competition ratio” value in assay [1] (50 µM) was -0.0951; in assay [1] (200 µM), 0.175; in assay [2] (200 µM), 0.239.
PPIB C202 (UniProt P23284): the “log2 mean competition ratio” value in assay [1] (50 µM) is -0.165; in assay [1] (200 µM), 0.0131; in assay [2] (50 µM), -0.366; in assay [2] (200 µM) it was -0.0532.
On the same counts, the results for PPFIBP1 C453 (UniProt Q86W92) are 0.0735, -0.06, 0.275 and -0.185.
For PPP6R2 C665 (UniProt O75170), in that order: 0.059, 0.152, 0.179 and 0.113.
For PRC1 C72 (UniProt O43663), in that order: -0.119, -0.179, 0.106 and -0.124.
For PPP2R5C C408 (UniProt Q13362), the “log2 mean competition ratio” value in assay [1] (50 µM) is -0.00129; in assay [1] (200 µM) it was -0.0272; in assay [2] (50 µM) it was -0.256; in assay [2] (200 µM), -0.135.
Take PPP2R2A C262: the “log2 mean competition ratio” value is -0.108 in assay [1] (50 µM), -0.0626 in assay [1] (200 µM), 0.1 in assay [2] (50 µM) and -0.0818 in assay [2] (200 µM).
On the same counts, the results for PPM1E C525 (UniProt Q8WY54) are -0.473, 0.223, 0.373 and 0.0841.
Consider PROSER2 C21 (UniProt Q86WR7), for which the “log2 mean competition ratio” value in assay [1] (50 µM) was -0.0612; in assay [1] (200 µM) it was 0.323; in assay [2] (50 µM) it was 0.0414; in assay [2] (200 µM) it was 0.244.
On the same counts, the results for PRC1 C14 (UniProt O43663) are -0.251, -0.0294, -0.39 and -0.11.
On the same counts, the results for PRKDC C2244 (UniProt P78527) are 0.213, -0.462, 0.322 and -0.476.
For PPP1R35 C142 (UniProt Q8TAP8), in that order: -0.128, 0.111, -0.14 and -0.192.
Consider PPP1R37 C451 (UniProt O75864), for which the “log2 mean competition ratio” value in assay [1] (50 µM) is -0.0806; in assay [1] (200 µM), 0.169; in assay [2] (50 µM), -0.649; in assay [2] (200 µM) it was 0.163.
On the same counts, the results for PPHLN1 C309 (UniProt Q8NEY8) are -0.111, -0.00487, -0.219 and 0.0779.
For PRKDC C3293 (UniProt P78527), in that order: 0.132, -0.22, -0.443 and -0.167.
For the target PRKDC C1432 (UniProt P78527), the “log2 mean competition ratio” value in assay [1] (50 µM) is -0.227; in assay [1] (200 µM) it was 0.06; in assay [2] (50 µM), -0.164; in assay [2] (200 µM), -0.0838.
For PPP1R12C C211 (UniProt Q9BZL4), in that order: -0.101, -0.149, 0.263 and -0.048.
Consider PRKRA C77 (UniProt O75569), for which the “log2 mean competition ratio” value is -0.352 in assay [1] (50 µM), 0.0594 in assay [1] (200 µM), -0.00985 in assay [2] (50 µM) and -0.0912 in assay [2] (200 µM).
For PRKCD C280 (UniProt Q05655), in that order: -0.165, -0.0557, -0.3 and -0.154.
